Reference: patent US8013018B2, “Aminoindane derivative or salt thereof” (Astellas Pharma Inc., priority 2006, dated 2011)
Structures can show the parent of a compound that is named as a salt. At least one compound was matched to its structure with a doubt left.

Biological target: NMDA receptor
Assay: [3H] MK-801 binding test on rat brain membrane specimen
Conditions: read-out: Ki (NMDA receptor affinity)
Procedure: 1) Preparation of Specimens of Rat Meninges:
The whole brain was taken out from 30 10-week SD rats (Nippon SLC), and the cerebellum was removed from them. A 0.32 M sucrose solution was added to the part containing the cerebrum, cut in a mixer, and homogenized with a Teflon™ (trademark) homogenizer. This was centrifuged at 2800 rpm and 4° C. for 15 minutes, and the resulting supernatant was again centrifuged at 15000 g and 4° C. for 20 minutes. The pellets were suspended in 50 mM Tris-HCL (pH 7.5) containing 0.08% Triton X-100, and kept statically on ice for 30 minutes, then centrifuged at 15000 g and 4° C. for 20 minutes. The pellets were suspended in 50 mM Tris-HCl (pH 7.5) added thereto, and centrifuged at 15000 g and 4° C. for 20 minutes. 50 mM Tris-HCl (pH 7.5) was again added to the pellets, and centrifuged in the same manner as before. The pellets were suspended in 20 ml of 50 mM Tris-HCl (pH 7.5) added thereto, and homogenized with the Teflon™ (trademark) homogenizer. The membrane specimen was divided into small tubes and stored in a deep freezer (−80° C.). Before use, this was washed twice with 5 mM Tris-HCl (pH 7.5) of five times that of the membrane specimen. Its concentration was controlled at 1 mg protein/ml with 5 mM Tris-HCl (pH 7.5) added to it, and this was used for assay.
2) [^3H] MK-801 Binding Assay: […]

Compound `CC1(C)Cc2ccc(O)cc2C1(C)N` (stereo not shown) [Example 37, 6-Hydroxy-1,2,2-trimethylindan-1-amine hydrochloride] has a Ki of 100 nM.
